The list shows a part of the results. The data scatter; read single values as rough.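 Tm was set to 64 °C where no melting was found, and many curves are irregular.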
Each target was assayed with CCc1cnccc1C(=O)Nc1cc2c(cc1F)NC(=O)CC2 (assay: melting temperature shift (DMSO Tm minus MBE1-treated Tm) in cellular thermal proteome profiling; higher = less thermal stabilization by MBE1 (negative = stabilized by MBE1)). Details: A375; MBE1 concentration: 100 nM.

The chains behind the UniProt entries cited, without tags or fusion partners. Where a name states a change or a piece, a line headed by the entry shows the natural chain unless it says otherwise.
UniProt P26447: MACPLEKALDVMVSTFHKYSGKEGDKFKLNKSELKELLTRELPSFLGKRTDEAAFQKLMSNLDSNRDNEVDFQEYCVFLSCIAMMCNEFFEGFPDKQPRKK
UniProt P32322: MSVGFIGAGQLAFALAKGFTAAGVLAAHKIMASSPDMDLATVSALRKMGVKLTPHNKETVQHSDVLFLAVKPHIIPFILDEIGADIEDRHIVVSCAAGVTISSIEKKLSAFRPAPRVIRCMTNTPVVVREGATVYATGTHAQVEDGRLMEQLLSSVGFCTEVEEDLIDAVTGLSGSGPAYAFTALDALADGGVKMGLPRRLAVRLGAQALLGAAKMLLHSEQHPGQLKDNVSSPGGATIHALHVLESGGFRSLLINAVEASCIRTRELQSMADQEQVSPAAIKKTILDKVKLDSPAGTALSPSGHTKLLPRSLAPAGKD
UniProt P35612: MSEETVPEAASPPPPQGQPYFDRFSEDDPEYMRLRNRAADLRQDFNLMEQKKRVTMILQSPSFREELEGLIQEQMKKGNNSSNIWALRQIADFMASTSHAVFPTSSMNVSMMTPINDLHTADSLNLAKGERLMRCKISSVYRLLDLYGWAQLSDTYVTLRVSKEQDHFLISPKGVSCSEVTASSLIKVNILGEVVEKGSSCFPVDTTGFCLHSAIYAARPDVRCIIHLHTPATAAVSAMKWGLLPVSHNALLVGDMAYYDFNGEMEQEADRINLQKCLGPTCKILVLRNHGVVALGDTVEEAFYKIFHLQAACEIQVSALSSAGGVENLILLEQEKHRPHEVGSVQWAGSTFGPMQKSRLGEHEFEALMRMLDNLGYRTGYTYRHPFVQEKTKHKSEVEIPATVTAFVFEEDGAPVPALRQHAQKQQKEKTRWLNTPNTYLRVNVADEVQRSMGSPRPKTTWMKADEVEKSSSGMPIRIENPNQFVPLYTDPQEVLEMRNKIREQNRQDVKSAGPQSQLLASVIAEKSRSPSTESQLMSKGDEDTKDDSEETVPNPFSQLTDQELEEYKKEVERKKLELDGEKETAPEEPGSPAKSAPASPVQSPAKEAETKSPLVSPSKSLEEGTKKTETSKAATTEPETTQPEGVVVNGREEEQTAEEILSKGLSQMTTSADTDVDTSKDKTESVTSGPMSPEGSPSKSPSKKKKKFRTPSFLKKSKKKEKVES
UniProt P29320: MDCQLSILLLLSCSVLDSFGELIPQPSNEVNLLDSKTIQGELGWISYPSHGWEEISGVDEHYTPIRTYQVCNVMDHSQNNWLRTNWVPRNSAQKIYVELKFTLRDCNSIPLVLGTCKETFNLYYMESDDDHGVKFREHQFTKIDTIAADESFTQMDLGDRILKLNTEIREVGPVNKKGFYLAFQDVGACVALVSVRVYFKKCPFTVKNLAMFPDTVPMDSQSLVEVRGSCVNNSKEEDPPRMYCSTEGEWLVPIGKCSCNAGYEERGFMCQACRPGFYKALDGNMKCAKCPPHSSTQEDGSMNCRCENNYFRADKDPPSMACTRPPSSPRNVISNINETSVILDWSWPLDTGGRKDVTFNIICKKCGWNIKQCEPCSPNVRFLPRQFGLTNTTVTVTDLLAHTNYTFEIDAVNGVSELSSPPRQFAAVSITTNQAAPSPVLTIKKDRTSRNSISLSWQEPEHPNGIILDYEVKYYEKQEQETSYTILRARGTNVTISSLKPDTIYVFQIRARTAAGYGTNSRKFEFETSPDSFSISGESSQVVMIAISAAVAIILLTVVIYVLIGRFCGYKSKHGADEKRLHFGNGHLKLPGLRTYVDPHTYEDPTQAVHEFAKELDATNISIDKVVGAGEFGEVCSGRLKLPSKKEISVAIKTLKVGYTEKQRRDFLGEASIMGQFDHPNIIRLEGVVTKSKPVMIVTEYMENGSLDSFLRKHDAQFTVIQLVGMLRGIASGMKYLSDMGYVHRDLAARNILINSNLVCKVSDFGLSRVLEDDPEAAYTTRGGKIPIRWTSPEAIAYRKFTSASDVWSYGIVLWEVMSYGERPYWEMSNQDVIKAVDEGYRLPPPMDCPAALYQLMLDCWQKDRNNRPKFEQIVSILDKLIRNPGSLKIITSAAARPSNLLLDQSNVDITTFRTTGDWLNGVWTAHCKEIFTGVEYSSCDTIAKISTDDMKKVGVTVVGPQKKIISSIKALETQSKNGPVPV
UniProt P35580, whole entry: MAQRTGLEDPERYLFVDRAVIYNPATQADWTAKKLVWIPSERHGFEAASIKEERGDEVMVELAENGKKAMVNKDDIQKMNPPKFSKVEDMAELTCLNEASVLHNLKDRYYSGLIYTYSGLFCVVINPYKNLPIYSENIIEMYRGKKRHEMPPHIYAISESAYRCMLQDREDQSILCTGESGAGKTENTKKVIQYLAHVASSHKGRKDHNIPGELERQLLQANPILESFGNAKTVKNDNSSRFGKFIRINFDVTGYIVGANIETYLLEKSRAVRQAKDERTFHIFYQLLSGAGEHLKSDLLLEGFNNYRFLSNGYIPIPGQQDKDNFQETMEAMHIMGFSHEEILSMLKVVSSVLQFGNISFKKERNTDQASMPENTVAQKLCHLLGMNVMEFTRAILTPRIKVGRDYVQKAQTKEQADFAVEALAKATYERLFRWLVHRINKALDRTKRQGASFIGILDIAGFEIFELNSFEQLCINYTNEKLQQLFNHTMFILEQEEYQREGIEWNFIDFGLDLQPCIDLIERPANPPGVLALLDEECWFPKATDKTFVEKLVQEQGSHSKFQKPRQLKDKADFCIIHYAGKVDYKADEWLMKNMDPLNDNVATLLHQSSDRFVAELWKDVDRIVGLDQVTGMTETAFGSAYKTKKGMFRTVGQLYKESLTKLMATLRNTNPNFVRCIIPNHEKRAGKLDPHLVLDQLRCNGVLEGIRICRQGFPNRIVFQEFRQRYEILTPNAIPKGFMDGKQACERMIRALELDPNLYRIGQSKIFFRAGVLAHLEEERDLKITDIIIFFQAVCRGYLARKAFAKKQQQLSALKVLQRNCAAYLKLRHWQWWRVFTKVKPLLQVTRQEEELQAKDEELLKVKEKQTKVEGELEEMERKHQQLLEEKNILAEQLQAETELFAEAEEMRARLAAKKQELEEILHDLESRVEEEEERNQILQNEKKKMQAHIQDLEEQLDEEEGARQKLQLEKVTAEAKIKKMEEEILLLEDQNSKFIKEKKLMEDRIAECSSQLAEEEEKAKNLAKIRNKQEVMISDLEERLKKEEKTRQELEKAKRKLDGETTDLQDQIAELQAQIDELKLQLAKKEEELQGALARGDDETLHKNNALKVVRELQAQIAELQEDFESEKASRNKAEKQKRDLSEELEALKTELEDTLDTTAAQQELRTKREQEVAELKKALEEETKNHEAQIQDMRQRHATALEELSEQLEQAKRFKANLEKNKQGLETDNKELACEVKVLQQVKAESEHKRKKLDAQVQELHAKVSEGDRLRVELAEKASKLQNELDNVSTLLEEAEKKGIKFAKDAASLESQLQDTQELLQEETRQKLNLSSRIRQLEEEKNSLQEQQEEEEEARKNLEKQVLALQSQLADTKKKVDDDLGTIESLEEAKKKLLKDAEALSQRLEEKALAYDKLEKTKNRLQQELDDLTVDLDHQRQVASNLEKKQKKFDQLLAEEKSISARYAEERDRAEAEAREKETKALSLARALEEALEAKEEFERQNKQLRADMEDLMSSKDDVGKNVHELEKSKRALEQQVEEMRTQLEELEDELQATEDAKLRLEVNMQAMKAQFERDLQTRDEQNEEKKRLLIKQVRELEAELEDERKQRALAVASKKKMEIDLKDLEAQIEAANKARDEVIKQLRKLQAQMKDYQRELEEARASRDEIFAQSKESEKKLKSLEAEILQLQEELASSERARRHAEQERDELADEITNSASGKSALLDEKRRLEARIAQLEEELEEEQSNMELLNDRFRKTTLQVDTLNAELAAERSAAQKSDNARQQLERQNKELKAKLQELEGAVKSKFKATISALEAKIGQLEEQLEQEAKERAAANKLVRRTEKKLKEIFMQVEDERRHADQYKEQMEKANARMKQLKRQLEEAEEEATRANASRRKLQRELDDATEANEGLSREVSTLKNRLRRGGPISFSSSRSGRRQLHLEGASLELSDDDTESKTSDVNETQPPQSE
UniProt P36894: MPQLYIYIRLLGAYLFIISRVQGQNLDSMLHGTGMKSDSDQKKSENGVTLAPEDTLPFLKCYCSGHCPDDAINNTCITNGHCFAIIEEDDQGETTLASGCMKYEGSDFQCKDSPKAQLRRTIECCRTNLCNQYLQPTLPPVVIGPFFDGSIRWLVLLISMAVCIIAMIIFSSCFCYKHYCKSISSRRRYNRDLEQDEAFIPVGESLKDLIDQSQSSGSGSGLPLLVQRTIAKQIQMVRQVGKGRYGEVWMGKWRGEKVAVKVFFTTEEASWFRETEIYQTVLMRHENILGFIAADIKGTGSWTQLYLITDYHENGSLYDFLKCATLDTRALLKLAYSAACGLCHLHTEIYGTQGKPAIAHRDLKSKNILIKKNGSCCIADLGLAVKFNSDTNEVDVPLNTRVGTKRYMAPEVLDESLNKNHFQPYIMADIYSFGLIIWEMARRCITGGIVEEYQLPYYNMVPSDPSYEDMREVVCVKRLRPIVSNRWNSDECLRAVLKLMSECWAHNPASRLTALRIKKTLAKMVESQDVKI
UniProt P28331, whole entry: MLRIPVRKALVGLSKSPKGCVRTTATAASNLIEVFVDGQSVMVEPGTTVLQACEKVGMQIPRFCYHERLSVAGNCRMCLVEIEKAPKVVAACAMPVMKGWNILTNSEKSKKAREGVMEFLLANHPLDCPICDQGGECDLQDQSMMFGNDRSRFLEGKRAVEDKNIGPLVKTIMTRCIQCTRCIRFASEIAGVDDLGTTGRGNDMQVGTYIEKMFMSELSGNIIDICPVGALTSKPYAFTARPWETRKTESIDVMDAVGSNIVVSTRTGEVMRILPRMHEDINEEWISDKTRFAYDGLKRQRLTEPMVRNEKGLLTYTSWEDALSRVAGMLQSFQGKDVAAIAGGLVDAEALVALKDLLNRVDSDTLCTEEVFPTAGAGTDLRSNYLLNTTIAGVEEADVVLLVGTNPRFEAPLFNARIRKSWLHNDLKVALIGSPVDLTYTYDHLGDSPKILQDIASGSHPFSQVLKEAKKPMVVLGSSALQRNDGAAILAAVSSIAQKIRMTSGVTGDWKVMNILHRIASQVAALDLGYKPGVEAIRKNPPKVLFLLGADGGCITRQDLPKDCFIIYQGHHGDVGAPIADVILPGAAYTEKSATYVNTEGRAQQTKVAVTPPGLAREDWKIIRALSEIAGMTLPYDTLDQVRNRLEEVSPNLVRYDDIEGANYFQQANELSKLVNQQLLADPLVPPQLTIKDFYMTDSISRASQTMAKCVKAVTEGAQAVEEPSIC
UniProt P36871: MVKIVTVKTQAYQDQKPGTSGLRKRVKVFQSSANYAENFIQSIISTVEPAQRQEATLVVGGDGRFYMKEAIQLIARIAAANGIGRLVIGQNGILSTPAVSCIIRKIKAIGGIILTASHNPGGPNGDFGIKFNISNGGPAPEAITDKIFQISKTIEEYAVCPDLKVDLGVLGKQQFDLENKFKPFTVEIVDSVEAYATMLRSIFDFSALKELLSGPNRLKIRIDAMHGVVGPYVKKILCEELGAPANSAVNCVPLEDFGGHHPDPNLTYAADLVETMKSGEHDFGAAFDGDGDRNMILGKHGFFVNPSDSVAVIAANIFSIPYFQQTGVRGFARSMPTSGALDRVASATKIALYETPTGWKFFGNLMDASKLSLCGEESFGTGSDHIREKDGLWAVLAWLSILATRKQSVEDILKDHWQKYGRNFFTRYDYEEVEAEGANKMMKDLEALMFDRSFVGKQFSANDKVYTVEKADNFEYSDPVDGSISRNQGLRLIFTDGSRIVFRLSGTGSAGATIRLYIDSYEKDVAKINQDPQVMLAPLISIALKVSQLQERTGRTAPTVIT
UniProt P27707: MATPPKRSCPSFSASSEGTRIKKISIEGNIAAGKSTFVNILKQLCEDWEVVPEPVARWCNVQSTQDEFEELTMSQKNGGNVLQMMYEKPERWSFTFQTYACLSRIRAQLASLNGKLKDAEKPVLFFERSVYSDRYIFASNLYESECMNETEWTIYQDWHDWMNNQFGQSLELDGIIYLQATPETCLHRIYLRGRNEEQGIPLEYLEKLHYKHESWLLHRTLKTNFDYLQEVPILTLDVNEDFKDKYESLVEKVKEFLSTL

Target | melting temperature shift
TARS (UniProt P26639) | 0.318 °C
PSMB4 (UniProt P28070) | -5.2 °C
S100A4 (UniProt P26447) | -1.4 °C
FDXR (UniProt P22570) | 0.83 °C
NUDT1 (UniProt P36639) | -0.966 °C

Same assay, conditions: A375; MBE1 concentration: 1 uM

Target | melting temperature shift
MPST (UniProt P25325) | -0.325 °C
UniProt P23468 | 0.904 °C
PYCR1 (UniProt P32322) | 0.311 °C
ERP29 (UniProt P30040) | -1.49 °C
UniProt P27987 | -0.77 °C
CD70 (UniProt P32970) | -2.84 °C
CHKA (UniProt P35790) | 0.537 °C
TYK2 (UniProt P29597) | 0.113 °C
RPL10 (UniProt P27635) | 0.456 °C
UniProt P35612 | -0.0733 °C
ELF1 (UniProt P32519) | -1.1 °C
ATP6V1E1 (UniProt P36543) | 0.269 °C
ATP5F1 (UniProt P24539) | -0.691 °C
PSMA5 (UniProt P28066) | -2.45 °C
TIA1 (UniProt P31483) | -0.423 °C
UniProt P27815 | 3.27 °C
RASA1 (UniProt P20936) | 0.301 °C
NUP214 (UniProt P35658) | -0.899 °C
INPP5B (UniProt P32019) | -0.107 °C

Target | melting temperature shift
EPHA3 (UniProt P29320) | 0.372 °C
MYH10 (UniProt P35580) | 0.33 °C
EEF1B2 (UniProt P24534) | 0.342 °C
BMPR1A (UniProt P36894) | -0.104 °C
NDUFS1 (UniProt P28331) | 0.525 °C
RPA1 (UniProt P27694) | -0.299 °C
PGM1 (UniProt P36871) | -1.15 °C
BCKDHB (UniProt P21953) | 0.951 °C
GSTM3 (UniProt P21266) | -0.795 °C
ACSL1 (UniProt P33121) | -0.0977 °C
DCK (UniProt P27707) | 0.33 °C
EPHA2 (UniProt P29317) | 0.202 °C
APC (UniProt P25054) | -0.751 °C
TARS (UniProt P26639) | 0.629 °C
PSMB4 (UniProt P28070) | -3.58 °C
S100A4 (UniProt P26447) | -1.63 °C
FDXR (UniProt P22570) | -0.0122 °C
NUDT1 (UniProt P36639) | 0.59 °C

— the supplement of paper PMC12595434, “Development of retinoid nuclear receptor pathway antagonists through targeting aldehyde dehydrogenase 1A3” (iScience, 2025)
